In the supplement of paper PMC10849652:
Some of the results follow.

By UniProt entry, the sequences of proteins in these tests, tags left out. Where a name states a change or a piece, a line headed by the entry shows the natural chain unless it says otherwise.
UniProt Q5T5X7: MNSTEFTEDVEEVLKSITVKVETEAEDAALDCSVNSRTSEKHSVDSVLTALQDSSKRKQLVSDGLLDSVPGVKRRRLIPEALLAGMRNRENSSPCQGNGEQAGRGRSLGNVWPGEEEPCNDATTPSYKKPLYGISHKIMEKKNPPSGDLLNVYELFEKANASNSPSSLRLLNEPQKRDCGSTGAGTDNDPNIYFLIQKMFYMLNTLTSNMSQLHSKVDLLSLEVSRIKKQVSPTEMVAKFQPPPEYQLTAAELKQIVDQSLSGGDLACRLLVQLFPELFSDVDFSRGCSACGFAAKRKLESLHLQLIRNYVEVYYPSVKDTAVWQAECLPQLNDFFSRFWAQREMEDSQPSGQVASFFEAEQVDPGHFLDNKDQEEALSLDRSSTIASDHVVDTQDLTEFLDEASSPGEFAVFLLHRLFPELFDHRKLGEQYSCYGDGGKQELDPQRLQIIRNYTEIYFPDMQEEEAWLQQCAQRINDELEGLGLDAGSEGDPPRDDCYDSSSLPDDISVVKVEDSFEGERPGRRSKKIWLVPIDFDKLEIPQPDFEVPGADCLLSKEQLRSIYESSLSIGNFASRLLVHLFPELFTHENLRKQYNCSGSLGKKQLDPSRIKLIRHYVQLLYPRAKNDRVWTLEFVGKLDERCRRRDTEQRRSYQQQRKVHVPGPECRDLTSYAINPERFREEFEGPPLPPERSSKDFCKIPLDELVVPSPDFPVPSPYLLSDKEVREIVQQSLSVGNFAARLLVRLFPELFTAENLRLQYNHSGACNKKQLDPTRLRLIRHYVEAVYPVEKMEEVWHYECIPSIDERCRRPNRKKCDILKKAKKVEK
UniProt P15056, whole entry, looked up: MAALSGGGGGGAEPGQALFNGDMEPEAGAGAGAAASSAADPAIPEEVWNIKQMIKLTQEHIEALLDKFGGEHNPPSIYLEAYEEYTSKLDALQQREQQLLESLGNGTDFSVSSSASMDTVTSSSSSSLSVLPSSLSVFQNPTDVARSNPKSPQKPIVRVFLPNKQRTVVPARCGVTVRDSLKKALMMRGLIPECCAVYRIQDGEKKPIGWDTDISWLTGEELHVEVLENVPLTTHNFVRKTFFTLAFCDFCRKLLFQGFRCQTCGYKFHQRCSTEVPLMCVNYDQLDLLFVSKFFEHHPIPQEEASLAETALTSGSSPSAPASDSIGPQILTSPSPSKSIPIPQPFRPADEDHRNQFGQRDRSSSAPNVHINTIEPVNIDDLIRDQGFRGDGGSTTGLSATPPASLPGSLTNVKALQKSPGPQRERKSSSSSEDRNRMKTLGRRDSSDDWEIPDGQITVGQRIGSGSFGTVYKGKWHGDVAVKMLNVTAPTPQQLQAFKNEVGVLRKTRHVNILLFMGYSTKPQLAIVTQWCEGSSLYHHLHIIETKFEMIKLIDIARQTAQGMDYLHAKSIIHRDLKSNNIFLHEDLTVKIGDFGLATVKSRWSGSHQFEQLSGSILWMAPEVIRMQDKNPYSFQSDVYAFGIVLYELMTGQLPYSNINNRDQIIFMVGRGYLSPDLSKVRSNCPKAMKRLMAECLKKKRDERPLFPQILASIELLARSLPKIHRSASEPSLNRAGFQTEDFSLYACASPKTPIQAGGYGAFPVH
UniProt Q9P287, whole entry, looked up: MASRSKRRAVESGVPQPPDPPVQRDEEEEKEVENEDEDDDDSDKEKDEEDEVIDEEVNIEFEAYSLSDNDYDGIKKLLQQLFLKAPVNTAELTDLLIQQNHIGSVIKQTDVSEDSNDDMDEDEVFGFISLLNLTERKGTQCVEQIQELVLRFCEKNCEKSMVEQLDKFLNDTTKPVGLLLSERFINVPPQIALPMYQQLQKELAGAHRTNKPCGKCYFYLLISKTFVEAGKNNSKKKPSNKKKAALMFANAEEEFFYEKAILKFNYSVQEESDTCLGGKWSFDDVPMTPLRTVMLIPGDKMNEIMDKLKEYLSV
UniProt Q14137: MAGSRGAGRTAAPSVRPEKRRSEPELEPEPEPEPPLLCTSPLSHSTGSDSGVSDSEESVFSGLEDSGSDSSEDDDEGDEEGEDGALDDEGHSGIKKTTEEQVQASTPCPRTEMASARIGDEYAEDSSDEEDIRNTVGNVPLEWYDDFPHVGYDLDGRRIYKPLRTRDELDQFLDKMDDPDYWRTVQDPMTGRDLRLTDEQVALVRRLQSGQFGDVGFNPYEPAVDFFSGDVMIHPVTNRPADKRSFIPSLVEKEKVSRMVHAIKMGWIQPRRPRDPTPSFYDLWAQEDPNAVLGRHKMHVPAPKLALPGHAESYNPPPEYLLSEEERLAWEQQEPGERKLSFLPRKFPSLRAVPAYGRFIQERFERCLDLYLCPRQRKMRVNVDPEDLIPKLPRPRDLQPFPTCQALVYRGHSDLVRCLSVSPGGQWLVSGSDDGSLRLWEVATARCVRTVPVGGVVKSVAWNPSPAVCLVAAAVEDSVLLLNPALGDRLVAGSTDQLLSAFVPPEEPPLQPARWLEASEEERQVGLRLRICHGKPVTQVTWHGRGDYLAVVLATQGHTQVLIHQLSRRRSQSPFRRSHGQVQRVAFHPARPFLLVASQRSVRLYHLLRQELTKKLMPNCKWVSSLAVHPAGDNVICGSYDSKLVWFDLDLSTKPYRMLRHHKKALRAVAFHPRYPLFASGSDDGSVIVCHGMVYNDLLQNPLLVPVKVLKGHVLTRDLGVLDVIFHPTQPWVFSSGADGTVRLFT
UniProt P25440, whole entry, looked up: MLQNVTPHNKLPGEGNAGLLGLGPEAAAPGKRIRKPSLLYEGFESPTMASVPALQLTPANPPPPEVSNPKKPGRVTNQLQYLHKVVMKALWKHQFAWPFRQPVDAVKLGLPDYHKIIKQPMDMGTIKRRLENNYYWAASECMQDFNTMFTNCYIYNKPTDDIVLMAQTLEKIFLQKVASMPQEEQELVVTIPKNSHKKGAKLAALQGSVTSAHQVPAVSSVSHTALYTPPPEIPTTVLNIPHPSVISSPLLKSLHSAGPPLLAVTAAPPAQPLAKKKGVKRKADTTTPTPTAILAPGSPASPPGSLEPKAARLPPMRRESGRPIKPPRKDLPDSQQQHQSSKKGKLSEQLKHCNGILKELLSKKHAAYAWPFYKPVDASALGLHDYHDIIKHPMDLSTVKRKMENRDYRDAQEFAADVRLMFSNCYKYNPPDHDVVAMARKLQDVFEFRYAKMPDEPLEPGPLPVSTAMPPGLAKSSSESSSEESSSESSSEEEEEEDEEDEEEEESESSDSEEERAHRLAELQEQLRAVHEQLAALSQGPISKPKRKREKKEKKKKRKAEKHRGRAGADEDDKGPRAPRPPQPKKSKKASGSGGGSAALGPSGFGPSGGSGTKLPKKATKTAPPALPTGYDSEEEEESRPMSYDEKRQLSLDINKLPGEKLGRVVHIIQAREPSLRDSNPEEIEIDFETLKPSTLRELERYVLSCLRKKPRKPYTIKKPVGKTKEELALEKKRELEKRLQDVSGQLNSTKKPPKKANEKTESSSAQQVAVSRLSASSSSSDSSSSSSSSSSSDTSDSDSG
UniProt Q9BXK5, whole entry, looked up: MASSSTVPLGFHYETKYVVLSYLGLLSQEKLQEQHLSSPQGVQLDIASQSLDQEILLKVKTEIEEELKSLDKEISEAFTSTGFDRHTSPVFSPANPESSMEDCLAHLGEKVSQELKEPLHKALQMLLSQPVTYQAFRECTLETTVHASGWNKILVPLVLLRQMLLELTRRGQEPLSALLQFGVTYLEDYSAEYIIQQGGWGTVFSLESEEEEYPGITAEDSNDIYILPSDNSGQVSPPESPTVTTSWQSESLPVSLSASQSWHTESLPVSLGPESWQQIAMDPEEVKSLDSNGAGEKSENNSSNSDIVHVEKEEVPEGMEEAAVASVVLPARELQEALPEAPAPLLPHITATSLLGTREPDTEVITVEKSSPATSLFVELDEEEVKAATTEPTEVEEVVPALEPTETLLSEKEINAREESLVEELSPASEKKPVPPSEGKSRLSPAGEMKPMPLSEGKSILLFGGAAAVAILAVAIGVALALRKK
UniProt Q9BX63: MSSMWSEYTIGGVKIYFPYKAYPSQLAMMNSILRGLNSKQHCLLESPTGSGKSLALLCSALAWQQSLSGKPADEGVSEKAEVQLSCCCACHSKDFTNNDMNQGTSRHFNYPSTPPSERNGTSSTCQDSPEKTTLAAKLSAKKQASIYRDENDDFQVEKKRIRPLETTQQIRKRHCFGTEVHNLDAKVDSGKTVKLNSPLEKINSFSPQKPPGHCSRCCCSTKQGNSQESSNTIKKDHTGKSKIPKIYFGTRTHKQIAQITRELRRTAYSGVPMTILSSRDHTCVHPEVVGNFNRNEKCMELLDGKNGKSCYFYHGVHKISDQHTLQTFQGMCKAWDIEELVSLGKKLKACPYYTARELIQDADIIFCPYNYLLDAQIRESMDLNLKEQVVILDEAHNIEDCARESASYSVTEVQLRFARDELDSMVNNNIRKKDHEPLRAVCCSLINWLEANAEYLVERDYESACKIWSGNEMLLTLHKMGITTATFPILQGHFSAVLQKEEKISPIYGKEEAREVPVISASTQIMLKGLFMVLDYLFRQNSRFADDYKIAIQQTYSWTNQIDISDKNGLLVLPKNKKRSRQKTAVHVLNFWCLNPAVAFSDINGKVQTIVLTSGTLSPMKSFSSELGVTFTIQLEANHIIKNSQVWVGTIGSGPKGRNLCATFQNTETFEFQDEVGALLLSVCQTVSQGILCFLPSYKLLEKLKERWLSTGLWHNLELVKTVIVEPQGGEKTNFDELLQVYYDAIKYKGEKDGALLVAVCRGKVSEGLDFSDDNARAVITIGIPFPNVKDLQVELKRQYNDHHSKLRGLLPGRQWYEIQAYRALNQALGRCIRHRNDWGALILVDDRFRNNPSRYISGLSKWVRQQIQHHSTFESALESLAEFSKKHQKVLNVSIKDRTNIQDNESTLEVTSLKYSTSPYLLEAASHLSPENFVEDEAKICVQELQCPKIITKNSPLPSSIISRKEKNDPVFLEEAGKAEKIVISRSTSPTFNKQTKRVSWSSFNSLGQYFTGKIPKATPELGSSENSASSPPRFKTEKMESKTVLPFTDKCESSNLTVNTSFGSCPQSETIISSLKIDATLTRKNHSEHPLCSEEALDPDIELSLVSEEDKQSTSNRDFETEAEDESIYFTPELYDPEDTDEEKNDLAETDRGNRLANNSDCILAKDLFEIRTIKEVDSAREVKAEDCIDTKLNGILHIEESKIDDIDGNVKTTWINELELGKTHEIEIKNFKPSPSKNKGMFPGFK
UniProt Q9HB09: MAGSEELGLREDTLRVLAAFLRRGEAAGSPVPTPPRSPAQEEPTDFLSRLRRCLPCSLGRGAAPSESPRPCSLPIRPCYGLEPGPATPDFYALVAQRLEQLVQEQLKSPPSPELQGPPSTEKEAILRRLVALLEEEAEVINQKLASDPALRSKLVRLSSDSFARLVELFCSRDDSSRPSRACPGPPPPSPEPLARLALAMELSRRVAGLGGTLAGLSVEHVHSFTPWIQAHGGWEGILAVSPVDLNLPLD
UniProt Q53S33: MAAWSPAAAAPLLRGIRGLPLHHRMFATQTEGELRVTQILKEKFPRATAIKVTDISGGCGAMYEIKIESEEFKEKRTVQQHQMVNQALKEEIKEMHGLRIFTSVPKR
UniProt O95999: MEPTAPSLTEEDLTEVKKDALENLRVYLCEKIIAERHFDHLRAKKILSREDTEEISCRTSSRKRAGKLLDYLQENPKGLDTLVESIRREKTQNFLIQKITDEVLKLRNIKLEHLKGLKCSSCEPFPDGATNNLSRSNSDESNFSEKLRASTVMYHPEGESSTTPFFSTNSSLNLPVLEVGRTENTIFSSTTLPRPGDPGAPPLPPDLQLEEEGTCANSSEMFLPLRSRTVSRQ
UniProt Q9NXR7, whole entry, looked up: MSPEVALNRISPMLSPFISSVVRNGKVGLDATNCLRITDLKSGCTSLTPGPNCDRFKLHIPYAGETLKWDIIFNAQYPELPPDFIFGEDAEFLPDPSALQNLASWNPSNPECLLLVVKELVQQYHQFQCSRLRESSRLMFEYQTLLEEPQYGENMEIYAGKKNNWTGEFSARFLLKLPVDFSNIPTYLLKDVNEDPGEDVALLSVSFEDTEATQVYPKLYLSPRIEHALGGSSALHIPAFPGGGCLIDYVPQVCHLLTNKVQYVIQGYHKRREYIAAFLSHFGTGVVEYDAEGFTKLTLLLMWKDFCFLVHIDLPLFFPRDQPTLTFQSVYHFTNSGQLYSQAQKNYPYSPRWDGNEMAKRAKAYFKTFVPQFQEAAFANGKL
UniProt Q07812, whole entry, looked up: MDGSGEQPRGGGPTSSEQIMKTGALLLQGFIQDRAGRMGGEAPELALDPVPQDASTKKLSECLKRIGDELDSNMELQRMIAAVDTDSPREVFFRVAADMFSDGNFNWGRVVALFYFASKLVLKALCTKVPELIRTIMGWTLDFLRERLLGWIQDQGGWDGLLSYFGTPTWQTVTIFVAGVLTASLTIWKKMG

Compound: NCC(=O)Nc1ccc(-n2nc(C(F)(F)F)cc2-c2ccc3c(ccc4ccccc43)c2)cc1
Assay: log2 fold change, soluble protein after heating vs DMSO (PISA); higher = thermal stabilisation; K562 lysate, 10 uM; active = over 0.2 and 3.5 SD of the protein, either way, in both replicates (recomputed)
Method in brief: (§1)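 K562 pellets were dounce-homogenised in PBS pH 7.4 with 1 mM MgCl2, and the crude extract at 1 mg/mL protein was treated with 10 μM compound for 30 min. Aliquots were heated for 3 min across 48°C-58°C, pooled, and brought to 0.5% NP-40 at 4°C; soluble protein was the supernatant after 21,000xg for 90 min. Soluble protein was quantified by TMTpro 16plex LC-MS/MS with channel sums equalised, and reported as log2 fold change in thermal stability against DMSO controls, with values from duplicates.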

Target	log2 fold change
BEND3 (UniProt Q5T5X7)	inactive: 0.03
BTD isoform 3 (UniProt P43251)	inactive: 0.03
BCL7C isoform 2 (UniProt Q8WUZ0)	inactive: 0.009
BRAF (UniProt P15056)	inactive: -0.001
BORA (UniProt Q6PGQ7)	inactive: 0.289
BCKDK (UniProt O14874)	inactive: -0.01
BARD1 (UniProt Q99728)	inactive: 0.045
BRAP (UniProt Q7Z569)	inactive: 0.034
BLM (UniProt P54132)	inactive: 0.03
BBS7 (UniProt Q8IWZ6)	inactive: -0.006
BORCS5 (UniProt Q969J3)	inactive: -0.061
BACH1 (UniProt O14867)	inactive: 0.053
BLOC1S1 (UniProt P78537)	inactive: -0.027
BECN1 (UniProt Q14457)	inactive: -0.034
BCCIP (UniProt Q9P287)	inactive: -0.04
BOP1 (UniProt Q14137)	inactive: 0.006
BLVRA (UniProt P53004)	inactive: -0.022

Target	log2 fold change
BAHCC1 (UniProt Q9P281)	inactive: 0.009
BRD2 isoform 2 (UniProt P25440)	inactive: 0.048
BRCA2 (UniProt P51587)	inactive: 0.061
BCL2L13 (UniProt Q9BXK5)	inactive: -0.016
BRIP1 (UniProt Q9BX63)	inactive: -0.126
BAZ1B (UniProt Q9UIG0)	inactive: 0.027
BCL2L12 (UniProt Q9HB09)	inactive: 0.031
BOLA3 (UniProt Q53S33)	inactive: -0.06
BCR (UniProt P11274)	inactive: 0.012
BCL10 (UniProt O95999)	inactive: 0
BABAM2 (UniProt Q9NXR7)	inactive: -0.008
BAX isoform 2 (UniProt Q07812)	inactive: 0.047
BRAT1 (UniProt Q6PJG6)	inactive: 0.015
BSDC1 (UniProt Q9NW68)	inactive: -0.073
BAG5 isoform 2 (UniProt Q9UL15)	inactive: 0.028
BPHL (UniProt Q86WA6)	inactive: -0.093

Compound: O=C(CCCCCCC(=O)Nc1ccccc1)NO [vorinostat]
Assay: as above
Method in brief: as §1

Target	log2 fold change
BEND3 (UniProt Q5T5X7)	inactive: -0.179
BTD isoform 3 (UniProt P43251)	inactive: 0.166
BCL7C isoform 2 (UniProt Q8WUZ0)	inactive: 0.041
BRAF (UniProt P15056)	inactive: -0.339
BORA (UniProt Q6PGQ7)	inactive: -0.115
BCKDK (UniProt O14874)	inactive: 0.025
BARD1 (UniProt Q99728)	inactive: -0.058
BRAP (UniProt Q7Z569)	inactive: -0.069
BLM (UniProt P54132)	inactive: -0.056
BBS7 (UniProt Q8IWZ6)	inactive: -0.354
BORCS5 (UniProt Q969J3)	inactive: 0.136
BACH1 (UniProt O14867)	inactive: -0.08
BLOC1S1 (UniProt P78537)	inactive: -0.028
BECN1 (UniProt Q14457)	inactive: -0.08
BCCIP (UniProt Q9P287)	inactive: -0.185
BOP1 (UniProt Q14137)	inactive: -0.173
BLVRA (UniProt P53004)	inactive: -0.049

Target	log2 fold change
BAHCC1 (UniProt Q9P281)	inactive: -0.082
BRD2 isoform 2 (UniProt P25440)	inactive: 0.107
BRCA2 (UniProt P51587)	inactive: -0.079
BCL2L13 (UniProt Q9BXK5)	inactive: 0.1
BRIP1 (UniProt Q9BX63)	inactive: -0.18
BAZ1B (UniProt Q9UIG0)	inactive: 0.02
BCL2L12 (UniProt Q9HB09)	inactive: -0.033
BOLA3 (UniProt Q53S33)	inactive: -0.002
BCR (UniProt P11274)	active: -0.267
BCL10 (UniProt O95999)	inactive: -0.02
BABAM2 (UniProt Q9NXR7)	inactive: -0.017
BAX isoform 2 (UniProt Q07812)	inactive: 0.016
BRAT1 (UniProt Q6PJG6)	active: -0.32
BSDC1 (UniProt Q9NW68)	inactive: 0.13
BAG5 isoform 2 (UniProt Q9UL15)	inactive: -0.159
BPHL (UniProt Q86WA6)	inactive: 0.143

Compound: O=C(O)c1ccc2c(c1)nc(Nc1cccc(Cl)c1)c1ccncc12 [silmitasertib]
Assay: as above
Method in brief: as §1

Target	log2 fold change
BEND3 (UniProt Q5T5X7)	inactive: 0.129
BTD isoform 3 (UniProt P43251)	inactive: -0.018
BCL7C isoform 2 (UniProt Q8WUZ0)	inactive: -0.002
BRAF (UniProt P15056)	inactive: 0.061
BORA (UniProt Q6PGQ7)	inactive: -0.027
BCKDK (UniProt O14874)	inactive: 0.052
BARD1 (UniProt Q99728)	inactive: 0.003
BRAP (UniProt Q7Z569)	inactive: -0.016
BLM (UniProt P54132)	inactive: 0.044
BBS7 (UniProt Q8IWZ6)	inactive: 0.133
BORCS5 (UniProt Q969J3)	inactive: 0.008
BACH1 (UniProt O14867)	inactive: 0.002
BLOC1S1 (UniProt P78537)	inactive: -0.026
BECN1 (UniProt Q14457)	inactive: 0.022
BCCIP (UniProt Q9P287)	inactive: -0.006
BOP1 (UniProt Q14137)	inactive: -0.013
BLVRA (UniProt P53004)	inactive: 0.014

Target	log2 fold change
BAHCC1 (UniProt Q9P281)	inactive: -0.086
BRD2 isoform 2 (UniProt P25440)	inactive: 0.074
BRCA2 (UniProt P51587)	inactive: 0.224
BCL2L13 (UniProt Q9BXK5)	inactive: 0.012
BRIP1 (UniProt Q9BX63)	inactive: 0.039
BAZ1B (UniProt Q9UIG0)	inactive: -0.023
BCL2L12 (UniProt Q9HB09)	inactive: 0.1
BOLA3 (UniProt Q53S33)	inactive: -0.026
BCR (UniProt P11274)	inactive: 0.005
BCL10 (UniProt O95999)	inactive: 0.009
BABAM2 (UniProt Q9NXR7)	inactive: 0.014
BAX isoform 2 (UniProt Q07812)	inactive: -0.024
BRAT1 (UniProt Q6PJG6)	inactive: -0.002
BSDC1 (UniProt Q9NW68)	inactive: -0.018
BAG5 isoform 2 (UniProt Q9UL15)	inactive: 0.016
BPHL (UniProt Q86WA6)	inactive: 0.049
